# Test results: PubChem BioAssay AID504834 (National Center for Advancing Translational Sciences (NCATS), 2011)
# About 22,000 (6.9%) of roughly 320,000 compounds were called active. Inconclusive means that the source gave no clear call. Such entries were picked first, then a sample of the others. Calls come from the whole dose curve; as a rule, active = well fitted inhibition curve with a large enough effect; inconclusive = small, poorly fitted or top-dose-only effect, or another doubt; inactive = no such curve, though single readings can be large or run the other way. Where the call is inconclusive, the potency comes from a doubtful curve fit.
# Assay: Primary qHTS for delayed death inhibitors of the malarial parasite plastid, 96 hour incubation
# Details: P. falciparum luciferase reporter growth; series mostly up to 28.7 µM
# How it was run: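 Readout is luminescence from an integrated firefly luciferase in P. falciparum. Red cells, 2% hematocrit and 0.05% parasitemia final, were cultured with compound through two parasite generations (96 hours) at 37 C, 5% CO2.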
# Potency is the fitted concentration of half-maximal effect.
row,Structure (SMILES),Potency
1,N#Cc1ccc(CSc2nnc(-c3ccccc3)n2Cc2ccco2)cc1,"inconclusive: 4.15 µM [inhibitor, partial curve]"
2,NC(N)=NCCCC(NC(=O)c1ccccc1)C(=O)Nc1ccc2ccccc2c1 (stereo not given),active: 10.4 µM
3,N#CCCN(C(=O)COC(=O)Cc1ccc(Br)cc1)c1ccccc1,"inconclusive: 0.0465 µM [inhibitor, full curve, poor fit]"
4,CCOc1ccc(-c2c(C(=O)N/N=C/c3c[nH]c4ccccc34)nnn2-c2nonc2N)cc1,inactive
5,O=C(O)Cc1sc(N/N=C\c2ccncc2)nc1-c1ccccc1,"inconclusive: 8.28 µM [inhibitor, single point]"
6,O=C(CC1S/C(=N/N=C/c2cccnc2)NC1=O)Nc1ccccc1 (stereo not given),"inconclusive: 0.37 µM [inhibitor, full curve]"
7,Cc1nn(-c2ccccc2)c2nc3c(cc12)C(=O)CCC3,"inconclusive: 11.7 µM [inhibitor, single point]"
8,COc1ccc(F)cc1S(=O)(=O)N1CCC2(CC1)OCCN2S(=O)(=O)c1ccccc1,"inconclusive: 0.117 µM [inhibitor, full curve, poor fit]"
9,COc1cccc(CNC(=O)CCNS(=O)(=O)c2ccc3c(c2)oc(=O)n3C)c1,"inconclusive: 18.5 µM [inhibitor, single point]"
10,CN(CC(=O)Nc1c(Cl)cccc1Cl)C(=O)CC1Sc2ccccc2NC1=O (stereo not given),inactive
11,CN(C)c1nc(NCc2ccccc2)nc(SCC(=O)Nc2ccccc2)n1,"inconclusive: 13.1 µM [inhibitor, single point]"
12,CCCCC1CCC(C(=O)N(C)CC(=O)Nc2cccc(OC)c2)CC1 (stereo not given),"inconclusive: 7.38 µM [inhibitor, partial curve, poor fit]"
13,CC(=O)n1cc([C@H]2C=C(C(=O)NCc3ccccc3)O[C@@H](OCc3ccc(CO)cc3)C2)c2ccccc21,active: 2.08 µM
14,COc1cccc(CNC(=O)CCC(=O)N2Cc3cccc(OC)c3Oc3ncccc32)c1OC,"inconclusive: 11.7 µM [inhibitor, single point]"
15,CCCNC(=O)CCc1c(C)nc2nc(-c3cc(OC)cc(OC)c3)nn2c1C,"inconclusive: 13.1 µM [inhibitor, partial curve, poor fit]"
16,Cc1ccc(NC(=O)[C@H](Cc2c[nH]c3ccccc23)NC(=O)[C@@H]2Cc3ccccc3CN2)c(C)c1,"inconclusive: 10.4 µM [inhibitor, single point]"
17,O=S(=O)(c1cccc2nsnc12)N1CCc2ccccc2C1,"inconclusive: 8.28 µM [inhibitor, partial curve, poor fit]"
18,COc1cc(NC(=O)CCc2nnc3ccc(N4CCCC4)nn23)cc(OC)c1OC,"inconclusive: 20.8 µM [inhibitor, single point]"
19,CCOc1cc(NC(=S)NCc2ccco2)c(OCC)cc1NC(=O)C1CC1,"inconclusive: 2.08 µM [inhibitor, partial curve, poor fit]"
20,O=C(Nc1ccccc1N1CCCC1)C1CCN(C(=O)c2ccc(Cl)cc2)CC1,"inconclusive: 13.1 µM [inhibitor, single point]"
21,CN(C)S(=O)(=O)n1cnc([C@@H]2[C@H]3C(=O)OC[C@@H]3C[C@@]23N=CN(Cc2ccccc2)C3=O)c1,"inconclusive: 1.47 µM [inhibitor, full curve, poor fit]"
22,ClC(Cl)(c1nnnn1-c1ccccc1)c1nnnn1-c1ccccc1,"inconclusive: 4.15 µM [inhibitor, single point]"

# In a second layout: entries from further up
row	Structure (SMILES)	Potency
1	N#Cc1ccc(CSc2nnc(-c3ccccc3)n2Cc2ccco2)cc1	inconclusive: 4.15 µM [inhibitor, partial curve]
3	N#CCCN(C(=O)COC(=O)Cc1ccc(Br)cc1)c1ccccc1	inconclusive: 0.0465 µM [inhibitor, full curve, poor fit]
8	COc1ccc(F)cc1S(=O)(=O)N1CCC2(CC1)OCCN2S(=O)(=O)c1ccccc1	inconclusive: 0.117 µM [inhibitor, full curve, poor fit]

# (list continues)

row,Structure (SMILES),Potency
1,O=C(Cn1cc2c(n1)CCCCC2)Nc1c(F)c(F)cc(F)c1F,active: 14.7 µM
2,CCOC(=O)c1c(CSc2cccs2)n(C)c2cc(Br)c(O)c(CN(C)C)c12,inactive
3,O=C(Nc1sc2c(c1C(=O)NCCCO)CCCC2)c1ccccc1,"inconclusive: 18.5 µM [inhibitor, single point]"
4,O=C(COC(=O)CCc1ccc(S(=O)(=O)N2CCOCC2)cc1)NCc1ccc(Cl)cc1,inactive
5,Fc1ccc2cnc(-c3ccccc3)c(-c3ccc(C(F)(F)F)cc3)c2c1,"inconclusive: 4.15 µM [inhibitor, single point]"
6,Cc1ccc(-c2noc(CCC(=O)NC3CCCc4ccccc43)n2)cc1 (stereo not given),active: 1.65 µM
7,COc1ccc2cc(C3CC(c4cccs4)=NN3S(C)(=O)=O)c(Cl)nc2c1 (stereo not given),"inconclusive: 3.7 µM [inhibitor, partial curve]"
8,c1ccc2c(c1)cnc1ccccc12,"inconclusive: 9.28 µM [inhibitor, partial curve]"
9,Cc1cc(C)c(C)c(S(=O)(=O)N2CCC(C(=O)Nc3ccc(S(=O)(=O)N4CCOCC4)cc3)CC2)c1C,"inconclusive: 2.62 µM [inhibitor, full curve]"
10,COc1ccc(NC(=O)c2ccc(COCC(F)(F)F)cc2)cc1OC,"inconclusive: 1.47 µM [inhibitor, partial curve, poor fit]"
11,CCc1noc(C)c1C(=O)Nc1cccc(S(=O)(=O)N(C)c2ccccc2)c1,"inconclusive: 6.57 µM [inhibitor, partial curve, poor fit]"
12,N=C(N)c1ccc2cc(OC(=O)c3ccc(N=C(N)N)cc3)ccc2c1,active: 1.07 µM
13,CCc1ccc(C(C(=O)NC2CCCC2)N(C(=O)/C=C/C(=O)Nc2cc(C)on2)c2ccccc2C)cc1 (stereo not given),"inconclusive: 18.5 µM [inhibitor, single point]"
14,Cc1ccc(CNC(=O)C2CCC(=O)N(Cc3ccccc3F)C2)s1 (stereo not given),inactive
15,CCCCS(=O)(=O)N1CCC(C(=O)Oc2ccc(Cl)cc2)CC1,inactive
16,Cc1ccccc1NC(=O)C1CCCN(C(=O)NCc2ccccc2)C1 (stereo not given),inactive
17,Cc1ccc(/C=N/Nc2ccc(Cl)nn2)cc1,inactive
18,Cc1cccnc1NC(=O)c1ccc(S(=O)(=O)N2CCCCCC2)cc1,"inconclusive: 0.738 µM [inhibitor, full curve, poor fit]"
19,CCOC(=O)c1sc(=NC(=O)COc2ccc(Cl)cc2)n(C)c1C,"inconclusive: 8.28 µM [inhibitor, partial curve, poor fit]"
20,O=C(CCc1ccccc1)NCCSCc1c(F)cccc1Cl,"inconclusive: 0.522 µM [inhibitor, full curve, poor fit]"
21,Cc1cc(OCC(=O)NC(Cc2ccc(Cl)cc2)C(=O)O)c2c(C)cc(=O)oc2c1 (stereo not given),inactive
22,O=c1c2cnn(-c3ccccc3)c2nc(-c2cccs2)n1-c1ccc(Cl)cc1,"inconclusive: 0.0657 µM [inhibitor, full curve, poor fit]"

row,Structure (SMILES),Potency
1,Cc1ccc(CC(=O)NCc2ccc(F)cc2)cc1,inactive
2,Nc1nc(-c2ccco2)c(-c2ccco2)s1,"inconclusive: 10.4 µM [inhibitor, single point]"
3,COc1ccc(OC)c(C(c2c(C)[nH][nH]c2=O)c2c(C)[nH][nH]c2=O)c1,"inconclusive: 0.131 µM [inhibitor, full curve, poor fit]"
4,CCC1(C)Cc2c(sc3nc(SC)nc(N)c23)CO1 (stereo not given),"inconclusive: 14.7 µM [inhibitor, single point]"
5,O=C(CN1CCN(c2ccccn2)CC1)N1c2ccccc2CCc2ccccc21,"inconclusive: 11.7 µM [inhibitor, partial curve, poor fit]"
6,CCc1nnc(NC(=O)CSc2ccc(-c3ccc(C)cc3)nn2)s1,inactive
7,COc1cc(CC2C(=O)N(C)C(=O)N(C)C2=O)ccc1OCc1ccccc1,"inconclusive: 0.0329 µM [inhibitor, full curve, poor fit]"
8,CCC(=O)Nc1cc(ON=C(C)C)cc([N+](=O)[O-])c1,inactive
9,CCCc1nnc(NC(=O)CCC(=O)Nc2ccc(Br)cc2)s1,inactive
10,O=C(N/N=C/c1ccc(Br)o1)c1cc([N+](=O)[O-])cc([N+](=O)[O-])c1,inactive
11,CC(C)(C)n1nc2c(c1NC(=O)COc1ccc(Cl)cc1)CS(=O)(=O)C2,inactive
12,CC1(OC(=O)CCc2ccccc2)C(=O)C=C2C=C(c3ccc(C#N)cc3)N(CCc3c[nH]c4ccccc34)C=C2C1=O (stereo not given),"inconclusive: 10.4 µM [inhibitor, single point]"
13,CCOc1cccc2sc(NC(=O)CCS(=O)(=O)c3ccccc3)nc12,"inconclusive: 18.5 µM [inhibitor, single point]"
14,Cc1ccc(S(=O)(=O)N2CCCCC2CCNC(=O)C(=O)NCc2ccncc2)cc1 (stereo not given),"inconclusive: 18.5 µM [inhibitor, single point]"
15,O=C(NCCn1c(-c2ccncc2)nc2ccccc21)[C@H]1CCCN1c1nc(CN2CCCCC2)cs1,"inconclusive: 6.57 µM [inhibitor, partial curve]"
16,CCC(=O)Nc1ccc(C(=O)OCC(=O)c2ccc(C)c([N+](=O)[O-])c2)cc1,"inconclusive: 11.7 µM [inhibitor, partial curve]"
17,CC(C)(C)N=Cc1cc(-c2ccccc2)sc1O,"inconclusive: 18.5 µM [inhibitor, single point]"
18,C[C@H]1C[C@@H]2[C@H]([C@@H](O)C[C@@]3(C)[C@H]2CC[C@]3(O)C(=O)CO)[C@@]2(C)C=CC(=O)C=C12,"inconclusive: 10.4 µM [inhibitor, single point]"
19,O=C(CCN1CCN(Cc2ccccc2)CC1)NNC(=O)Nc1cccc([N+](=O)[O-])c1,active: 13.1 µM
20,COCCCNC(=O)Cn1cc(C(=O)C2CC2)c2ccccc21,"inconclusive: 0.0033 µM [inhibitor, full curve, poor fit]"
21,C=CCN([C@@H](CC(C)C)C(=O)OC)S(=O)(=O)N(CC=C)[C@@H](CC(C)C)C(=O)OC,"inconclusive: 11.7 µM [inhibitor, partial curve, poor fit]"
